Measured values: PubChem BioAssay AID2685 (National Center for Advancing Translational Sciences (NCATS), 2010)
Among all 320,000 compounds or so, about 2,100 (0.66%) were called active. Inconclusive means that the source gave no clear call. Such entries were picked first, then a sample of the others. Calls come from the whole dose curve; as a rule, active = well fitted inhibition curve with a large enough effect in the signal ratio, with a control signal flat (not every such curve was filed as active); inconclusive = small, poorly fitted or top-dose-only effect, or effect the other way, or a change in a side signal; inactive = flat fitted curve, though single readings scatter; the % refers to the signal ratio. A potency beside an inconclusive call is a rough fit, not a confirmed value.

Assay: qHTS Assay for Lipid Storage Modulators in Drosophila S3 Cells
Conditions: BODIPY lipid droplet fluorescence, 18-24 h, cells fed with added oleic acid; lipid storage change, negative = inhibition: at 46.1 µM (top of the series) unless noted
Procedure, shortened: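 Laser-scanning cytometry quantifies lipid droplet accumulation (500–530 nm total intensity; droplet/cell object ratio) in oleic acid-fed (400 uM added) Drosophila S3 cells treated with a concentration series. 20 uM Triacsin C defined 100% inhibition.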
% is set by controls: 0 for no effect and ±100 for the full control effect; potency is the fitted concentration of half-maximal effect.

SMILES	lipid storage change, negative = inhibition	Potency	outcome
O=C(O)c1ccc(-n2cccc2)cc1O	inconclusive: 6.56%		
COc1cccc(N2CC(C(=O)Nc3ccc(C(=O)OC(C)C)cc3)CC2=O)c1 (stereo not drawn)	inconclusive: -5.91%		
COc1ccc(NC(=O)CSc2nc3ccccc3c(=O)n2CCCC(=O)NCC2CCCO2)c(OC)c1 (stereo not drawn)	inconclusive: -86%		
O=C(CSc1nc(=O)n(CCCN2CCOCC2)c2c1CCCC2)Nc1cccc(Cl)c1		inconclusive: 2.91 µM [falling, partial curve]	
Cc1ccc(N2CCN(S(=O)(=O)c3cccs3)CC2C)cc1 (stereo not drawn)		active: 3.66 µM	
COC(=O)CSc1nc2ccc(NC(C)=O)cc2s1	inconclusive: 30.3%		
COCCN(C(=O)CSc1nnc(-c2cccs2)n1N)c1c(N)n(Cc2ccccc2)c(=O)[nH]c1=O	inconclusive: 16%		
Cc1cc(NC(=O)C(C)C)ncc1NC(=O)CCc1ccccc1	inconclusive: -17.4%		
O=C(O)CCCNS(=O)(=O)c1ccc(F)cc1	inconclusive: -4.33%		
CCC(C(=O)NC1CCCC1)N(C(=O)Cn1nnc(-c2ccc(OC)c(OC)c2)n1)C1CCCCC1 (stereo not drawn)	inconclusive: 9.03%		
COc1ccc(Nc2nc(-c3sc(C)nc3C)cs2)cc1		inconclusive: 0.651 µM [activator, partial curve, poor fit]	
CCn1nc(NS(=O)(=O)c2ccc([N+](=O)[O-])cc2)c2cc3cccc(C)c3nc21		active: 1.46 µM	
Cc1ccc(NS(=O)(=O)c2cccc(C(=O)NCC(c3cccs3)N3CCOCC3)c2)cc1 (stereo not drawn)		inconclusive: 0.731 µM [falling, full curve]	
O=C(Nc1ccc(Cl)c(Cl)c1)C1=Cc2ccccc2OC1	inconclusive: -20.5%		
CCCCN(C(=O)C1CCN(C(=O)c2ccccc2C)CC1)c1c(N)n(CCCC)c(=O)[nH]c1=O	inconclusive: 13.9%		
Cc1ccc2c(Cn3ccnc3)cc(=O)oc2c1C	inconclusive: 18.3%		
CC1CCCCN1S(=O)(=O)c1ccc(NC(=O)c2cccc(-n3cnnn3)c2)cc1 (stereo not drawn)	inconclusive: -4.11%		
C/C(=N\NC(N)=O)C1CC(Cc2ccccc2)C(=O)O1 (stereo not drawn)	inconclusive: -100%		
COc1ccc(OC)c(-c2cc(C(=O)NCc3ccco3)no2)c1	inconclusive: -4.19%		
CCCc1cc(=O)oc2c(C)c(OCC(=O)NCCCN3CCOCC3)ccc12			inactive [at 46.1 µM]
CCNC(=O)NC(=O)CSc1ccccc1F	inconclusive: -0.0497%		
CCOC(=O)C(CCC(C)=O)C(=O)c1ccccc1 (stereo not drawn)		inconclusive: 23.1 µM [activator, partial curve]	
NC(=O)SC/C(=N\S(=O)(=O)c1ccccc1)Nc1ccccc1		inconclusive: 13 µM [falling, partial curve]	

Look-ups from above.
`O=C(O)CCCNS(=O)(=O)c1ccc(F)cc1` – lipid storage change, negative = inhibition: inconclusive: -4.33%
`Cc1ccc2c(Cn3ccnc3)cc(=O)oc2c1C` – lipid storage change, negative = inhibition: inconclusive: 18.3%
